Data reported in PubChem BioAssay AID720541 (National Center for Advancing Translational Sciences (NCATS), 2013).
Hit rate of the full screen: of about 1,300 compounds, about 420 (32%) were called active. This list was built around the results that the source calls inconclusive (neither active nor inactive); the mix of calls is not that of the screen. Calls come from the whole dose curve; as a rule, active = well fitted inhibition curve with a large enough effect; inconclusive = small, poorly fitted or top-dose-only effect; inactive = no such curve, though single readings can be large or run the other way. A potency beside an inconclusive call is a rough fit, not a confirmed value.

The molecules below were run against C-terminal-binding protein 1 (Homo sapiens) (UniProt Q13363) (assay: qHTS for Inhibitors of the Phosphatase Activity of Eya2: Carboxyl-terminal binding protein (CtBP) Counterscreen for Cherry-picked Compounds). Conditions: purified protein-protein binding, AlphaScreen, 3 h; activity change, negative = inhibition: at 46.1 µM (top of the series).
How it was run: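 AlphaScreen using 25 nM GST-E1A with 25 nM CtBP-6xHIS; compounds at 2.5 nM–46 uM final, 2 h at room temperature, then donor/acceptor beads (20 ug/mL) for 1 h in the dark. Signal normalized to E1A peptide inhibitor (maximum inhibition) and DMSO.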
% is set by controls: 0 for no effect and ±100 for the full control effect; potency is the fitted concentration of half-maximal effect.
Note: nearly all actives have a fitted effect of over 65% in size.

Question: `CCN(CC)S(=O)(=O)c1cccc(NC(=O)c2cc(-c3cccs3)nn2-c2ccccc2)c1` was tested. Which Potency did it give?
Answer: inconclusive: 6.01 µM [inhibitor, partial curve]

Question: For `CC(=O)Nc1ccc(Nc2nc(-c3c(C)nc4ccccn34)cs2)cc1`, which Potency is on record?
Answer: inconclusive: 8.49 µM [inhibitor, partial curve]

Question: With `O=C(Oc1cccnc1)c1ccc([N+](=O)[O-])cc1Cl` as the molecule, how does the Potency read?
Answer: inactive

Question: With `CC(C)(C)NC(=O)c1cccc(NC(=O)c2ccc(NC(=O)c3ccco3)cc2)c1` as the molecule, how does the Potency read?
Answer: inactive

Question: How did the Potency turn out when `CN(C)c1ccc(-c2ccnc3c2CC(C)(C(=O)NCCC(F)(F)F)O3)cc1` (stereo unspecified) was run?
Answer: inactive

Question: How did the Potency turn out when `NS(=O)(=O)c1ccc2c(c1)C1C=CCC1C(C1CC=CCC1)N2` (stereo unspecified) was run?
Answer: inconclusive: 13.5 µM [inhibitor, partial curve]

Question: How did the Potency turn out when `CC(=O)N1CCCc2cc(S(=O)(=O)N3CCCC(C(=O)N4CCN(c5cc(C)ccc5C)CC4)C3)ccc21` (stereo unspecified) was run?
Answer: inactive

Question: For `O=C(CSc1nnc2c(n1)[nH]c1ccccc12)Nc1cccc(S(=O)(=O)N2CCOCC2)c1`, which Potency is on record?
Answer: inactive

Question: Which Potency does the source give for `COC(=O)c1ccc(NC(=O)CSc2nc(=O)n3cccc(C)c3n2)cc1` here?
Answer: active: 13.5 µM

Question: `Cc1ccc(C)c2c(/C=C/c3ccc(N(C)C)cc3)ccnc12` was tested. Which Potency did it give?
Answer: inconclusive: 6.01 µM [inhibitor, partial curve]

Question: How did the Potency turn out when `O=C(O)C1Nc2c(Cl)cc(Cl)c(Cl)c2C2C=CCC12` (stereo unspecified) was run?
Answer: inconclusive: 30.1 µM [inhibitor, single point]

Question: `Cc1cc(C)c2c(n1)sc1c(O)cc(=O)[nH]c12` was tested. Which Potency did it give?
Answer: inactive

Question: Which Potency does the source give for `O=C(O)c1cccc(NS(=O)(=O)c2cccc(C(=O)Nc3ccccc3[N+](=O)[O-])c2)c1` here?
Answer: inconclusive: 19 µM [inhibitor, single point]

Question: With `O=C(NN1C(=O)/C(=C\c2ccc(O)c([N+](=O)[O-])c2)SC1=S)c1ccccc1Cl` as the molecule, how does the Potency read?
Answer: active: 12 µM

Question: How did the Potency turn out when `CC1Cc2ccccc2N1NC(=O)c1ccc(Cl)c(S(N)(=O)=O)c1` (stereo unspecified) was run?
Answer: inactive

Question: Which Potency does the source give for `O=C(/C=C/c1ccccc1[N+](=O)[O-])Nc1cccc(S(=O)(=O)NC2=NCCCCC2)c1` here?
Answer: inconclusive: 15.1 µM [inhibitor, single point]

Question: Which Potency does the source give for `COc1ccc(Oc2nc(-c3ccccn3)ncc2OC)cc1` here?
Answer: active: 10.7 µM

Question: How did the Potency turn out when `N=C1/C(=C/c2ccc(-c3cccc(C(=O)O)c3)o2)C(=O)N=C2SC=C(c3ccccc3)N12` was run?
Answer: inconclusive: 16.9 µM [inhibitor, single point]

Question: `COc1cc2nc(CN3CCN(S(=O)(=O)c4c(F)cccc4F)CC3)[nH]c(=O)c2cc1OC` was tested. Which Potency did it give?
Answer: inconclusive: 15.1 µM [inhibitor, single point]

Question: For `COc1cc(NC(=O)c2cccc(S(=O)(=O)N3CCCCC3)c2)cc(OC)c1OC`, which Potency is on record?
Answer: inconclusive: 15.1 µM [inhibitor, single point]

Question: For `O=C(Oc1cccc(Br)c1)c1cccnc1`, which Potency is on record?
Answer: inconclusive: 16.9 µM [inhibitor, single point]

Question: How did the Potency turn out when `CC(=O)Nc1ccc(S(=O)(=O)N2C3CCCC2CC(NC(=O)C2CCCCC2)C3)cc1` (stereo unspecified) was run?
Answer: inactive

Question: `COc1ccc(Nc2nnc(-c3ccc(C(N)=O)cc3)c3ccccc23)cc1` was tested. Which Potency did it give?
Answer: active: 4.78 µM

Question: For `CN(C)c1ccc2nc3ccc(=[N+](C)C)cc-3sc2c1`, which Potency is on record?
Answer: inactive

Question: Which Potency does the source give for `O=C(COC(=O)c1cc(-c2cccnc2)nc2ccccc12)Nc1ccc(F)cc1F` here?
Answer: inactive

Question: `CCOC(=O)C1(Cc2ccc(Cl)cc2)CCN(C(C)Cc2ccc(O)c(OC)c2)CC1` (stereo unspecified) was tested. Which Potency did it give?
Answer: inconclusive: 15.1 µM [inhibitor, single point]

Question: `O=C(O)/C=C/C(=O)Nc1ccc2c(c1)C(=O)c1ccccc1C2=O` was tested. Which Potency did it give?
Answer: active: 7.57 µM

Question: `Cc1cc(C)c2nc(SCC(=O)N(C)C3CCS(=O)(=O)C3)cc(C)c2c1` (stereo unspecified) was tested. Which Potency did it give?
Answer: inactive

Question: With `CSC1=N/C(=C\C=C\c2cccs2)C(=O)S1` as the molecule, how does the Potency read?
Answer: inconclusive: 19 µM [inhibitor, single point]

Question: `CC(C)C[C@H]1CN(CCCC[C@@H]2CNC(=O)C(=O)N2CCc2ccccc2)C(=O)C(=O)N1CCc1ccc(O)cc1` was tested. Which Potency did it give?
Answer: inconclusive: 15.1 µM [inhibitor, single point]

Question: `CO[C@@H]1[C@@H](OC(N)=O)[C@@H](O)C(Oc2ccc3c(O)c(NC(=O)c4ccc(O)c(CC=C(C)C)c4)c(=O)oc3c2C)OC1(C)C` (stereo partly specified) was tested. Which Potency did it give?
Answer: inconclusive: 16.9 µM [inhibitor, single point]

Question: How did the Potency turn out when `Nc1ccc(C=C2C=Cc3ccccc32)cc1` was run?
Answer: inconclusive: 15.1 µM [inhibitor, partial curve]

Question: With `COc1ccccc1N1CCN(/N=C\c2ccccc2)CC1` as the molecule, how does the Potency read?
Answer: inconclusive: 19 µM [inhibitor, single point]

Question: With `CCN(c1ccc(NC(=O)COC(=O)CCc2cc(OC)c(OC)c(OC)c2)cc1)C(C)C` as the molecule, how does the Potency read?
Answer: inconclusive: 15.1 µM [inhibitor, single point]

Question: For `O=C(CC(=O)c1c(F)cccc1Cl)c1ccccc1O`, which Potency is on record?
Answer: inactive

Question: `O=C(NC1CCCCC1)N1CCN(C2CCCCC2)CC1` was tested. Which Potency did it give?
Answer: inactive

Question: How did the Potency turn out when `Cc1cc(C)c(OCCCCN(C)Cc2ccccc2)c(C)c1` was run?
Answer: inactive

Question: `Fc1ccccc1/C=N/N1CCN(Cc2ccccc2Cl)CC1` was tested. Which Potency did it give?
Answer: inconclusive: 21.3 µM [inhibitor, single point]

Question: `O=C(COC(=O)c1n[nH]c(=O)c2ccccc12)Nc1cccc(S(=O)(=O)N2CCOCC2)c1` was tested. Which Potency did it give?
Answer: inactive

Question: Which Potency does the source give for `Cc1[nH]c2ccc(C(=O)OC(C)C(=O)N(C)c3ccccc3)cc2c1C` (stereo unspecified) here?
Answer: inactive

Question: `O=C(COc1ccc2c(-c3ccccc3)cc(=O)oc2c1)NC(Cc1c[nH]c2ccccc12)C(=O)O` (stereo unspecified) was tested. Which Potency did it give?
Answer: inconclusive: 16.9 µM [inhibitor, single point]

Question: `O=C1C(=O)C(c2ccc(O)cc2O)Oc2cc(O)cc(O)c21` (stereo unspecified) was tested. Which Potency did it give?
Answer: inconclusive: 16.9 µM [inhibitor, single point]

Question: `CC1(C)CC2CC(C)(CN2/C=N/c2sc3c(c2C#N)CC(C)(C)NC3(C)C)C1` (stereo unspecified) was tested. Which Potency did it give?
Answer: inactive

Question: `N#C/C(=C\c1ccc(-c2cccc(C(F)(F)F)c2)o1)C(=O)Nn1cnnc1` was tested. Which Potency did it give?
Answer: inconclusive: 26.9 µM [inhibitor, single point]

Question: How did the Potency turn out when `COc1ccc(-n2c(=O)c3c4c(sc3n(CC(=O)Nc3cc(C)[nH]n3)c2=O)CCC4)c(OC)c1` was run?
Answer: inconclusive: 26.9 µM [inhibitor, single point]

Question: How did the Potency turn out when `CC1CCc2c(sc(NC(=O)/C=C/c3cccs3)c2C(=O)O)C1` (stereo unspecified) was run?
Answer: inconclusive: 16.9 µM [inhibitor, single point]

Question: Which Potency does the source give for `O=C(/C=C/c1ccccc1)Oc1cccc2cccnc12` here?
Answer: active: 2.39 µM

Question: Which Potency does the source give for `O=C(/C=C/c1ccco1)Oc1cccc2cccnc12` here?
Answer: active: 4.26 µM

Question: Which Potency does the source give for `O=C(NCc1ccco1)C1CC2CCC1C2` (stereo unspecified) here?
Answer: inactive

Question: How did the Potency turn out when `CCOC(=O)c1nc(Nc2ccc(Nc3ccccc3)cc2)c2ccccc2n1` was run?
Answer: active: 13.5 µM

Question: With `COc1ccccc1CNC(=O)c1ccc2c(=O)n(CCCN3CCCC3=O)c(=S)[nH]c2c1` as the molecule, how does the Potency read?
Answer: inactive

Question: `COc1cc(OC)c(OC)cc1/C=C/c1nccc2ccccc12` was tested. Which Potency did it give?
Answer: active: 7.57 µM

Question: For `CN(C)Cc1ccccc1Sc1cccc2ccccc12`, which Potency is on record?
Answer: inactive

Question: Which Potency does the source give for `Fc1cccc(Nc2ncnc3[nH]ncc23)c1` here?
Answer: inconclusive: 16.9 µM [inhibitor, single point]

Question: For `Cc1cc(C)nc(-n2nc(C)cc2Nc2ccccc2)n1`, which Potency is on record?
Answer: inconclusive: 15.1 µM [inhibitor, partial curve]

Question: For `CS(=O)(=O)c1ccccc1-c1nnc(NC(=O)c2ccc(S(=O)(=O)N3CCCC3)cc2)o1`, which Potency is on record?
Answer: inconclusive: 15.1 µM [inhibitor, single point]

Question: With `COc1cc(S(=O)(=O)O)c(C)cc1N=Nc1c(O)ccc2cc(S(=O)(=O)O)ccc12` as the molecule, how does the Potency read?
Answer: inconclusive: 15.1 µM [inhibitor, partial curve]

Question: How did the Potency turn out when `Cn1nnnc1SCC(=O)Nc1ccc2c(c1)OCO2` was run?
Answer: inactive

Question: Which Potency does the source give for `CN(C)CCNc1nc2sc3c(c2c(=O)n1CCc1ccccc1)CCCCC3` here?
Answer: inconclusive: 13.5 µM [inhibitor, partial curve]

Question: Which Potency does the source give for `Nc1nccnc1C(=O)OCC(=O)Nc1ccc2[nH]c(=O)[nH]c2c1` here?
Answer: inconclusive: 15.1 µM [inhibitor, partial curve]

Question: With `COc1cccc(C2c3[nH]c4ccccc4c3CCN2C(=O)c2ccccc2F)c1OC` (stereo unspecified) as the molecule, how does the Potency read?
Answer: inconclusive: 19 µM [inhibitor, single point]

Question: How did the Potency turn out when `Cc1ccc(Nc2nnc(SCC(=O)NC(Cc3c[nH]c4ccccc34)C(=O)O)s2)cc1` (stereo unspecified) was run?
Answer: inconclusive: 15.1 µM [inhibitor, partial curve]

Question: For `O=C(O)c1cc(-c2ccc(/C=C3\NC(=O)N(c4ccc(Cl)cc4)C3=O)o2)ccc1Cl`, which Potency is on record?
Answer: active: 8.49 µM

Question: With `COc1ccc(/C=N/N2CCN(Cc3ccc(C)cc3)CC2)cc1Br` as the molecule, how does the Potency read?
Answer: inconclusive: 15.1 µM [inhibitor, partial curve]

Question: With `CC(SC1=NCCS1)C(=O)Nc1nnc(-c2ccc(Br)cc2)s1` (stereo unspecified) as the molecule, how does the Potency read?
Answer: inconclusive: 8.49 µM [inhibitor, partial curve]

Question: `CC1CCCCC1NC(=O)COC(=O)c1c2c(nc3ccccc13)/C(=C/c1ccco1)CC2` (stereo unspecified) was tested. Which Potency did it give?
Answer: inconclusive: 13.5 µM [inhibitor, partial curve]

Question: With `Cc1ccc(NC(=O)c2cc3c(CO)cnc(C)c3oc2=Nc2cccc(C(N)=O)c2)cc1` as the molecule, how does the activity change, negative = inhibition read?
Answer: inconclusive: -30.5% [inhibitor]

Question: With `CCn1ccnc1CNCc1ccc(OCC(O)CN(C)Cc2ccccc2)cc1` (stereo unspecified) as the molecule, how does the Potency read?
Answer: inconclusive: 30.1 µM [inhibitor, single point]

Question: Which Potency does the source give for `Cc1csc(NC(=O)c2cc(=O)[nH]c3ccccc23)n1` here?
Answer: active: 19 µM

Question: For `Cc1ccc(S(=O)(=O)/C(C#N)=C/c2c(N3CCOCC3)nc3c(C)cccn3c2=O)cc1`, which Potency is on record?
Answer: inconclusive: 16.9 µM [inhibitor, partial curve]

Question: `COc1ccc(C(=O)C2CCCN(C(=O)c3cccc(N(C)C)c3)C2)cc1OC` (stereo unspecified) was tested. Which Potency did it give?
Answer: inactive
